Laboratory results taken from article PMC4631508.
Changes are numbered by the printed parent chain. These are yes or no findings as the source states them, for the method shown. Binding seen in cells or lysates may run through a third protein. Some entries that bind do so weakly or less than the wild type. Where a sequence is shown, tags or fusion partners need not be part of it.

Experiments:
Assay in all cases: co-IP; protein extracts from Drosophila testes expressing GFP- or YFP-tagged proteins; precipitated with GFP-trap beads (ChromoTek), immunoblotted
[1] = molecular target: T1, YFP-Rab11 (wild type) (Drosophila) (UniProt O18335)
T1 sequence: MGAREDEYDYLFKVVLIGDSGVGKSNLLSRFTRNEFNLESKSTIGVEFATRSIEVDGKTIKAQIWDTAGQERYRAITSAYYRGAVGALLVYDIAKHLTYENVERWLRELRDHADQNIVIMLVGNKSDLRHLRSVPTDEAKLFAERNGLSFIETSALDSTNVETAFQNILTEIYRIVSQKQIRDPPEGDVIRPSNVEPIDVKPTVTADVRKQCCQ

[2] = molecular target: T2, YFP-Rab11^Q70L (Drosophila) (UniProt O18335)
T2 sequence: T1 sequence with Q70L

[3] = molecular target: T3, YFP-Rab11^S25N (Drosophila) (UniProt O18335)
T3 sequence: T1 sequence with S25N

B1: Sec5 (protein, UniProt Q9VQQ9 1-894)
chain: MAPQPVVTGLSPKEGPPGTRVIIRGEFLGTRVQDLIGLKICGSDCLLSAEWKSPNKIIARTGPAKGKGDIIVTTLSGGVGTSTVQFRAYHETIGPLKESAVWIEESPSQNFAWGRRTLAQSGLTQEDPLGLSIEGNEQKIPEDLRDLFPEACGDLSQEHFSPAWFLLENHLATSFEDLKAGLSYLKRKVESQKEGQLSFLKSNAGSVIDQLDTLMNIRDKLQEDVKLHGNETLNILETSIENSISESQKIFTDVLVRKEKADSTRSVLFALSRHKFLFCLPNSVDRRAKAGEYDIVVNDYSRAKNLFGKTEIPIFRKVLEEVDHRILSIRKQLHEKVVKMPQSVEQQKKLIKALISLELQQSGTPIGDKLRNIDPAWDAIEARAKYLEWTFRQTFDQHTSKDSGAQEKAKNRDSSQAPNRVNFCEELCDIAASQLPDLWRLGQLYFTGELRGPHDPKPGDFKRMVLNAIEKFCVYLRLAILIATDQRALRQSSGLAWPIGSASATHQFLPWIPQCLRFTRIAYATLISLDLPSEALDIIQKLIDEVRLFCFSIIFKRATDRCKKLGSQETWELGVEEYPGATLLPAALETLLIETLDEVQSVCMQRETREGNLLEPQSDGQREVTQRLQEFLSAFSAVIEELAFHSHDEETPTHNVSQLLGFPNAQQPDSVAGSGGAAAVTWEQRMLCCLANYAYCNKIFFPRLGDIFVRYGYPLPTLAIETARYTVNQLFTNLLEEYVEHKGDPLVGTIEPSMYLGRFQWDHEMEIGQLRPYAHECCDNLVGVYSEIYSISPALLRPILESIVQTISEELARLMSCVQRFSFTGAIQAHVDIRLLRDSLEGYVNETAKNYFMEALEAINPPLSGEQKRKADEILERVKRNMRLQLLCFSVKDP
With B1 the binding [1] was “binds”, the binding [2] was “binds” and the binding [3] was “binds weakly”.
